SMILES strings stand for the structures. The list shows a part of the results. Single values are uncertain here, since repeats match poorly.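 A first-round screen of about ten thousand compounds sought those raising reporter output, using human embryonic kidney cells briefly transfected with a plasmid carrying a Renilla luciferase gene driven by the HSV-TK promoter.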

The test system of this assay is HEK 293FT. The experiment in a line: log relative Renilla luciferase luminescence (reporter expression vs reference, reference not stated) (log (base not stated)); higher = higher recombinant reporter expression. Conditions: 10 µM; time after transfection 48 h. As to the method:
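HEK 293FT cells transiently transfected with pRL-TK (Renilla luciferase) were treated with compounds at 10 uM and luminescence was read about 42 h later. Values are log relative Renilla luminescence (log base and reference not stated). Single-pass screen; 2080 natural products library.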
In the case of `C/C=C1\CN(C)[C@H]2C[C@@]3(C(=O)N(OC)c4ccccc43)[C@H]3C[C@@H]1[C@@H]2CO3` [Humantenine], the log is -0.0825. In the case of `C/C=C1/C[N@+]2(C)CC[C@@]34c5ccccc5N[C@]32[C@@H](O)C[C@@H]1[C@@]4(CO)C(=O)OC` [Echitamine] it was -0.0313; in that of `C=C[C@]12CN(C)[C@@H]3[C@H]4CO[C@H](C[C@H]41)[C@]1(C(=O)Nc4ccccc41)[C@@H]32` [Gelsemine], -0.744; in that of `COc1cc2ccc(=O)oc2c2ccoc12` [Sphondin], 0.00461. As to `O=C1c2ccccc2-c2c3c(cc4ccnc1c24)OCO3` [Liriodenine], the log is -0.195. `CC(=O)OC12COC1CC(O)C1(C)C(=O)C(O)C3=C(C)C(O)CC(O)(C(OC(=O)c4ccccc4)C21)C3(C)C` (stereo not drawn) [10-Deacetylbaccatin III]: the log amounted to 0.0468. For `N#C/C(=C\CO[C@@H]1O[C@H](CO)[C@@H](O)[C@H](O)[C@H]1O)CO` [Sarmentosin], the log turned out to be 0.15. Then `C=C1C/C(=C/C)C(=O)O[C@@H]2CC[N+]3([O-])CC=C(COC(=O)[C@]1(C)O)[C@H]23` (stereo partly drawn) [Seneciphylline N-oxide], with 0.145.

In the case of `COc1ccc([C@@]23Oc4cc(OC)cc(OC)c4[C@]2(O)[C@H](O)C[C@H]3c2ccccc2)cc1` [Rocaglaol], the log was -0.805. Then `C=C1C/C(=C/C)C(=O)O[C@@H]2CCN3CC=C(COC(=O)[C@]1(C)O)[C@H]23` [Seneciphylline], with 0.0949; and `CC1(C)CCC[C@]2(C)[C@@H]1C[C@H](O)[C@@]13C[C@@H](CC[C@@H]21)[C@@](O)(COC(=O)Cc1ccccc1)C3` [Sculponeatin O], with -0.413; and `CC1(C)C(=O)C=C[C@@]2(C)C1=C(O)C(=O)[C@]1(C)[C@@H]2[C@@H](O)C[C@@]2(C)[C@H](c3ccoc3)C[C@H]3O[C@]321` [11beta-Hydroxycedrelone], with -0.0758. Then `C=C1[C@@H](O)[C@]2(O)OC[C@]34[C@H]2[C@@]2(C)[C@H](O)C(=O)C=C(C)[C@@H]2C[C@H]3OC(=O)C[C@@H]14` [Ailanthone], with -1.55; and `C=C(C)[C@H]1[C@H]2OC(=O)[C@@H]1[C@@]1(O)[C@H]3O[C@H]3[C@]3(CO3)[C@]1(C)[C@@H]2O` [Tutin], with 0.0647; and `COC(=O)C1=C2Nc3c(O)cccc3[C@@]23CCN2C[C@@H]([C@H](C)O)[C@@H]1C[C@H]23` [Scholaricine], with 0.0337. Then `COc1ccc2c3c([nH]c2c1)C(C)=NCC3` [Harmaline], with -0.225; and `C/C=C1/CN2[C@@H]3C[C@@]45c6ccccc6N[C@]4(O3)[C@@H]2C[C@@H]1[C@H]5C(=O)OC` [Picrinine], with -0.186; and `CCC1=N[C@H]2C[C@@]3(C(=O)N(OC)c4ccccc43)[C@H]3CC1[C@@H]2CO3` [Humantenmine], with -0.744.
